Test results from PMC5338267.
No constants are given. Whether binding was seen depends on the method and setting. In cells and extracts the contact can be indirect. Some results given as binding are weak or reduced against the parent protein; the word gives no strength.

By UniProt entry, the sequences of proteins in these tests, tags left out.
UniProt P17931: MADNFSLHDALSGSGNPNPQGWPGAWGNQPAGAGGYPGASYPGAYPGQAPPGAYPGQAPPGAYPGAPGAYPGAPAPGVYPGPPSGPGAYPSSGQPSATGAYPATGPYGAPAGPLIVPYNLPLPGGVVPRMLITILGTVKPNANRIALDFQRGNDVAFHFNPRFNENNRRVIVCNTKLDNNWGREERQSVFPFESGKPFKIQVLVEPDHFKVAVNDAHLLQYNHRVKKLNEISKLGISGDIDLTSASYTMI
UniProt P05198: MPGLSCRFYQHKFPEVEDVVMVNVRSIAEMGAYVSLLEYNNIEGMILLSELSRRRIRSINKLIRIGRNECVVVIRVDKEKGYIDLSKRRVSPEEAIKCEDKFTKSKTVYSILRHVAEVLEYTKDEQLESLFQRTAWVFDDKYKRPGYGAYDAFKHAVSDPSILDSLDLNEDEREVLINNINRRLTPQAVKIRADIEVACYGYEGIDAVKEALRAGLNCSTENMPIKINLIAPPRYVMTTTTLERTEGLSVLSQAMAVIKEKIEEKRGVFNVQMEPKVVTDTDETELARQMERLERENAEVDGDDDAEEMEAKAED
UniProt Q13283: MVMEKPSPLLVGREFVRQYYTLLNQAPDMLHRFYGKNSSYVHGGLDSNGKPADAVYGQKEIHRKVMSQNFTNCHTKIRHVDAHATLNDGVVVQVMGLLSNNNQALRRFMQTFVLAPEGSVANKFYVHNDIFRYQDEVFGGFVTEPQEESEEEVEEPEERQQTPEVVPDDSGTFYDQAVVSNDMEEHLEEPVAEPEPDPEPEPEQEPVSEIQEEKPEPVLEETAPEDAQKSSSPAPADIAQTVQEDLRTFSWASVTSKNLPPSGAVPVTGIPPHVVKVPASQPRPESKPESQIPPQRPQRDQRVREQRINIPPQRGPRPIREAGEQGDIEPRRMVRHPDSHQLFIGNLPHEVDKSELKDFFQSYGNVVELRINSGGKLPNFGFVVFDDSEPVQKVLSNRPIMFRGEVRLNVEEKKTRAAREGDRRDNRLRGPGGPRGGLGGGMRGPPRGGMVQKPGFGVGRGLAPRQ

Molecular target: Galectin-3 (human (endogenous in CAPAN-1-derived Sc cells)) (UniProt P17931)
Experiment: proximity ligation; Duolink In Situ; cells fixed with 4% PFA and permeabilised with 0.2% saponin; primary antibodies overnight at RT; spots counted per cell; Sc cells in basal state, treated with nocodazole, or after heat stress (42 °C, 30 min)

Substance | binding
eIF2α (from UniProt P05198 1-315) | binds weakly
G3BP1 (from UniProt Q13283 1-466) | binds weakly
